Assay results from PMC10163288.
The list shows a part of the results.

B1: il2ra_site2_3nfp_sap_14_mot_HHH_b2_06150_000000230_0001_39_53_H_._HHH_b2_03345_af2_0001_0000700020_0000001_0_0001_af2pred_0001_1_af2pred_swapped (protein)
chain: DLREVLEELLEEGDPKLLEEALMLALKLLEEDPNDEKARRISNLLAEYDAEGDPRAIEEALEIAR
B2: il2ra_site1_3nfp_sap_21_mot_ems_3hC_3_0002_000000237_0001_23_41_H_._HHH_b2_07018_0001_0000100001_0000001_0_0001 (protein)
chain: DVVEELEELLEELGVPPKEIKTIAWYLRVAAETLGDPKEALKRLLEDARKIGNPEAEEVVELLLK
B3: il2ra_site1_3nfp_sap_15_mot_HHH_b1_04357_000000099_0001_1_19_H_._HHH_b1_03761_0001_0000500037_0000001_0_0001_af2pred_0001_af2pred_swapped (protein)
chain: PERLLEELLELAKRDPDPEVREIVEEVEEVLKRDPEEALELLLELLRELGDPAAVRLVELLLRLL
B4: il2ra_site2_3nfp_sap_13_mot_HHH_b2_00482_000000184_0001_1_21_H_._49678f45da0a336f03cbe5a93813d6e2_0001_1_af2_0001_0000300012_0000001_0_0001_af2pred_0001_af2pred (protein)
chain: SSSSSSSDEEEVEELLEEAKRIDDEFEFFAVLALAVEIALRSDNEELEKLVKEVSRKKRSSSSSS
B5: il2ra_site1_2b5i_sap_19_mot_896e48d2d441ca48be90d8e148bbf30e_0001_1_af2_000000028_0001_35_48_H_._HHH_b2_01204_af2_0001_0000100007_0000001_0_0001_af2pred_dldesig … (protein)
chain: SSSSSDLEAEAEAALAKARELKEAGKRREALEELEKIAKKLDENDDEELLARVEELAKELSSSSS
B6: il2ra_site2_3nfp_sap_18_mot_ems_p1-15H-GBL-16H-GBL-14H_0089_0001_0001_0001_af2_000000072_0001_19_33_H_._HHH_b1_06056_0001_0000300024_0000001_0_0001 (protein)
chain: SSSSSSDHEAYEKVVELLKEASQIEDPEERREVLEEARELAEEARSPVLRRSVEFVAEALSSSSS
B7: il2ra_site1_1z92_normal_mot_934a834d9b8b770824478def2ff2f329_0001_af2_000000088_0001_15_30_H_._962fa67eee94b9f6762fa8d12b0fa7b0_0001_1_af2_0001_0000100002_00000 … (protein)
chain: SELEEALQILLEKTGDPLLRILLEMVRRALEQGHSDPEAILRDIRKFLEFAGNPELAKELEELFK
B8: il2ra_site2_2erj_normal_mot_HHH_b1_08231_000000000_0001_20_37_H_._HHH_b1_05068_af2_0001_0000400013_0000001_0 (protein)
chain: SSSSDLEEEVERLIKQAEELLEEGNPEEAEELLSEAFTLAYEANDPRLAALVIELMHLVARSSSS
B9: il2ra_site2_3nfp_sap_14_mot_HHH_b2_00746_000000285_0001_20_36_H_._HHH_b2_02385_af2_0001_0000500019_0000001_0_0001 (protein)
chain: SSSSDEEAQELLEEAKELLKDEELREEAEQALLRAAALAWEEGDFELYMEIAELAFEVVQSSSSS
B10: il2ra_site2_3nfp_normal_mot_HHH_b2_06150_000000230_0001_39_53_H_._HHH_b1_07886_af2_0001_0000500017_0000001_0 (protein)
chain: SSSSSSEEVEELLEEAERLLREGNPEEAKQVLARAAAIAYELGDQRLFIEVAELVLKILRSSSSS
B11: il2ra_site1_3nfp_sap_13_mot_HHH_b1_03716_af2_000000235_0001_20_37_H_._HHH_b2_05993_0001_0000100005_0000001_0_0001_af2pred_0001_af2pred (protein)
chain: SSSSDEEQEEVEELLERAEKAAEEGDLEKARELFRRALKVALEINDPEAERLVHEAMRRASSSSS
B12: il2ra_site2_3nfp_normal_mot_HHH_b2_08245_000000023_0001_41_55_H_._ems_3hC_866_af2_0001_0000100004_0000001_0 (protein)
chain: SEEQEEQIERLEEELREAVERNDKEKIKEIIRLISHFVAENRDNPEARRLFFLAAEALFLVVQSS
B13: il2ra_site1_1z92_sap_17_mot_HHH_b1_06709_000000271_0001_41_56_H_._HHH_b1_04981_af2_0001_0000600008_0000001_0_0001_af2pred_0001_af2pred (protein)
chain: SLEEEVEELAKLIPDPRLRELVQALLEELELGNPAAKAFLEVLVKKLRRDPEAAKRLLEKALKAE
B14: il2ra_site1_2b5i_sap_23_mot_HHH_b2_04131_000000150_0001_1_16_H_._HHH_b1_04838_0001_0000300009_0000001_0_0001_af2pred_dldesign_0_af2pred (protein)
chain: SSAEDERLEREIEELEELKKKLTNPEAKKLLTLAIRALRKAIRHRDPGAAELARELREKALSLKS
B15: il2ra_site1_2b5i_normal_mot_HHH_b1_06515_af2_000000249_0001_1_17_H_._HHH_b1_06937_af2_0001_0000200012_0000001_0_af2pred_0001_af2pred (protein)
chain: SSSSDEELHRVDELYRRASELFRRGNKEEARQLLEEAIEIAEEAGDERTVKDLRRFLERISSSSS
B16: il2ra_site1_1z92_normal_mot_HHH_b2_05238_af2_000000252_0001_38_55_H_._HHH_b1_01495_af2_0002_0000300012_0000001_0_af2pred_0001_af2pred_1 (protein)
chain: SSSSSKEESLELAERAARRAIEAGNERSARRLLKFVIEAAEELGNEELLEELEELLERLESSSSS
B17: il2ra_site2_3nfp_sap_21_mot_HHH_b1_02173_000000190_0001_1_18_H_._HHH_b2_05995_0001_0000200011_0000001_0_0001 (protein)
chain: SEEELRELVRELLNVPPKSAEYIVAVALILAGGDPELAEELLREVIEEAGGDPNKVIQILYKRAR
B18: il2ra_site1_2b5i_sap_14_mot_1dae16775e8f4074d71d019417416b97_0001_af2_000000275_0001_1_12_H_._HHH_b2_06340_0001_0000200004_0000001_0_0001_af2pred_dldesign_0_af2 … (protein)
chain: SSSSMSLRDLTLAYLKKAEELLAAGKPEEAYKLLVMARRTAKKGGDEELVAEVEARLARLSSSSS
B19: il2ra_site1_2b5i_normal_mot_HHH_b1_01495_af2_000000272_0001_42_56_H_._HHH_b1_00083_0001_0000300014_0000001_0_af2pred_dldesign_0_af2pred (protein)
chain: SSSSDEEYARVDDLFHEALKLKKEGKLEEAQELLDEALELAKKVNDPKIIAELEYLKEKLSSSSS

What follows are binders tested against il2ra, P01589 (assay: yeast display titration).

Apparent Kd, inactive:
B1 no binding seen, B2 no binding seen, B3 no binding seen, B4 no binding seen, B5 no binding seen, B6 no binding seen, B7 no binding seen, B8 no binding seen, B9 no binding seen, B10 no binding seen, B11 no binding seen, B12 no binding seen, B13 no binding seen, B14 no binding seen, B15 no binding seen, B16 no binding seen, B17 no binding seen, B18 no binding seen, B19 no binding seen
